Where “and” joins values, the source holds several entries; their conditions need not be identical. Identical values can stand only once. Hit rate of the full screen: of about 310,000 compounds, about 17,000 (5.5%) were called active. The shares of active, inactive and inconclusive entries below differ from those in the screen. The call rests on the fitted dose curve; in most records, active means well fitted inhibition curve with a large enough effect; inconclusive means small, poorly fitted or top-dose-only effect, or effect the other way; inactive means no such curve, though single readings can be large or run the other way. Where the call is inconclusive, the potency comes from a doubtful curve fit. Some structures have more than one record in an assay (separate samples or runs), and their calls can disagree.
These molecules were tested against Nuclear receptor ROR-gamma (Mus musculus) (UniProt P51450) (assay: qHTS for inhibitors of ROR gamma transcriptional activity). Conditions: Drosophila S2 Gal4-RORgamma UAS-luciferase reporter, 20 h; activity change, negative = inhibition: at 53.6 µM (top of the series).
Method in brief: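 Schneider cells (Drosophila), stable Gal4 DBD–ROR gamma + UAS-luc; 1 hr cmpd preincubation; Cu2+ induction 700 uM final; 20 hr ambient; luminescence.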
Further: nearly all actives have a fitted effect of over 60% in size.
On the % scale 0 is the no-effect control and ±100 the full control effect; potency means the concentration at half of the fitted maximal effect.

By UniProt entry, the sequences of proteins in these tests, tags left out. Where a name states a change or a piece, a line headed by the entry shows the natural chain unless it says otherwise.
UniProt P51450: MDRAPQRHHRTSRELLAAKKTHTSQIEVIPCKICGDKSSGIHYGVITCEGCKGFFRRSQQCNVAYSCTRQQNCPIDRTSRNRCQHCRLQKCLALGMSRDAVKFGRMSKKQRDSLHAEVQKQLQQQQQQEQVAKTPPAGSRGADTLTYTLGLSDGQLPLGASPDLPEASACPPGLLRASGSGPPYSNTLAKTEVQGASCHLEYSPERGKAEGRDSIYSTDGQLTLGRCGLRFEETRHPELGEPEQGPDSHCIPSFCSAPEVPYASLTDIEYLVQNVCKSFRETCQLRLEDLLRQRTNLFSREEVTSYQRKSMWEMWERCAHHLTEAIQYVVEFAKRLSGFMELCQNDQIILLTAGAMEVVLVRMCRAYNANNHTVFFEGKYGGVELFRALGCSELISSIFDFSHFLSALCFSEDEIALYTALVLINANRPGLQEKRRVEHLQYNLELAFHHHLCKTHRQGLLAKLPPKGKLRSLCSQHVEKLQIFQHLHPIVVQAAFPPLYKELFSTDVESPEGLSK

SMILES	Potency	activity change, negative = inhibition
COc1cccc(CSc2nc(N)cc(N)n2)c1	inconclusive: 1 µM [inhibitor, full curve]	–
O=S(=O)(Nc1nc2ccccc2nc1Cl)c1cccc(C(F)(F)F)c1	inconclusive: 35.5 µM [activator, single point]	–
NCCc1ccn[nH]1	–	inactive: 0.572% [at 2.98 µM]
Cc1ccccc1C(=O)N/N=C/c1ccccn1	active: 10 µM	–
CCOc1ncccc1C(=O)N(CC)CC(=O)NCc1ccc(Cl)cc1	–	inactive: 11.7%
C=C(C)Cn1c(N2CCC(Cc3ccccc3)CC2)nc2c1c(=O)[nH]c(=O)n2C	inconclusive: 12.6 µM [activator, partial curve]	–
Cc1cc(C(=O)OCC(=O)Nc2sc3c(c2C#N)CCC(C)C3)c2ccccc2n1 (centres undefined)	–	inactive: 30.1%
O=C(NCc1cccnc1)C1CCN(c2ccc(S(=O)(=O)N3CCOCC3)cc2Cl)CC1	inconclusive: 8.91 µM [activator, partial curve]	–
CCC(COC(=O)Nc1ccccc1)NC(=O)OC(C)C (centres undefined)	–	inactive: 13.2%
CCOC(=O)N=Nc1c(O)n(CC)c2ccccc12	–	inactive: 29.8%
CCN(CC)S(=O)(=O)c1cccc(-c2n[nH]c(=S)n2/N=C/c2ccc(Br)cc2)c1	inconclusive: 6.31 µM [inhibitor, single point]	–
CC(C)Cc1ccc(C(=O)NCCOc2ccccc2)o1	inconclusive: 7.94 µM [inhibitor, partial curve, poor fit]	–
CC(=O)Nc1cccc(NC(=O)CSc2nnc(NC(=O)C3CC3)s2)c1	inconclusive: 0.562 µM [activator, single point]	–
COc1ccc(C(=O)CC(=O)C(=O)Nc2ccc(Cl)cc2)cc1	active: 7.08 µM	–
CCCC(NCC(O)COc1ccc(-c2ccccc2)cc1)c1ccccc1 (centres undefined)	inconclusive: 25.1 µM [inhibitor, single point]	–
NS(=O)(=O)c1ccc(CCNCc2cc(Br)ccc2OCc2ccccc2)cc1	inconclusive: 2.82 µM [activator, full curve]	–
CNc1nc(-c2ccoc2)nc2ccccc12	inconclusive: 35.5 µM [activator, single point]	–
O=C(C1=NN[C@@H]2C(=O)N(Cc3ccccc3)C(=O)[C@H]12)c1ccc([N+](=O)[O-])cc1	inconclusive: 7.94 µM [activator, partial curve]	–
Cc1cccc(NC(=O)NCc2ccc3c(c2)OCO3)c1	inconclusive: 5.62 µM [activator, single point]	–
COc1cc(C(=O)O[C@H]2C/C(C)=C/CC/C(C)=C/[C@@H](O)C2C(C)C)ccc1O (some centres undefined)	–	inactive: 6.87%
CC(Sc1nc2ccccc2s1)C(=O)NCc1ccc2c(c1)OCO2 (centres undefined)	inconclusive: 11.2 µM [activator, partial curve]	–
Cc1nc(CC(=O)Nc2nc(-c3ccccc3)cs2)cs1	–	inactive: 37.5%
CCOC(=O)C1C(=O)NC(N2CCc3ccccc32)=NC1c1ccccc1 (centres undefined)	inconclusive: 22.4 µM [activator, single point]	–
Cc1ccc(/C=C/C(=O)c2c(C)cc(C)[nH]c2=O)cc1	inconclusive: 35.5 µM [inhibitor, single point]	–
Cc1cccc(-c2nnc(SCC(=O)Nc3nc4c(s3)CCCC4)n2C)c1	inconclusive: 17.8 µM [activator, single point]	–

SMILES	Potency	activity change, negative = inhibition
COc1cccc(/C=N/n2c(SC)nnc2-c2ccccc2)c1O	inconclusive: 0.631 µM [inhibitor, single point]	–
CCCOC(=O)c1ccc(Oc2c(-c3ccc(OCC)cc3O)n[nH]c2C)cc1	–	inactive: -8.37%
COc1ccc(-c2cn(Cc3ccc(C(=O)c4ccccc4)cc3)nn2)cc1	inconclusive: 8.91 µM [inhibitor, single point]	–
Cc1ccc(-n2nnnc2SCC(=O)Nc2cccc(NC(=O)c3ccco3)c2)cc1C	inconclusive: 14.1 µM [activator, single point]	–
O=C(NCc1ccc(Cl)cc1)N1CCN(Cc2ccccc2)CC1	–	inactive: -20%
CCOC(=O)CN1Cc2cccc(C(=O)O)c2C1=O	inconclusive: 31.6 µM [activator, single point]	–
CC1=C(/C=C/C(C)=C/C=C/C(C)=C/C(=O)Nc2ccc(O)cc2)C(C)(C)CCC1	inactive and active: 4.47 µM	–
c1ccc2cc(-c3cc4ccccn4c3)ccc2c1	inconclusive: 1.78 µM [inhibitor, partial curve]	–
O=C(NCCCN1CCOCC1)c1cc(-c2ccc(Br)cc2)on1	inconclusive: 25.1 µM [inhibitor, single point]	–
Cc1ccn2cc(-c3cccc(NC(=O)CCC(=O)O)c3)nc2c1	active: 7.08 µM	–
COC(=O)c1ccc(OC)c(CSc2nnc(COc3ccc(Cl)cc3)o2)c1	inconclusive: 35.5 µM [inhibitor, single point]	–
CCc1c(C)nc2ncnn2c1N1CCCC(C(=O)NCc2ccc3c(c2)OCO3)C1 (centres undefined)	inconclusive: 5.62 µM [activator, single point]	–
Cc1ccc(O)c(NC(=S)NC(=O)CC(C)C)c1	inconclusive: 35.5 µM [inhibitor, single point]	–
CCc1cc2c(Nc3ccccc3O)nc(C)nc2s1	inconclusive: 11.2 µM [activator, partial curve]	–
Cc1ccc2c(n1)sc1c(-c3ccccc3)c(C#N)c(N)nc12	–	inactive: -6.21%
CCN(CC)C(=S)Nc1ccc(Cl)c(Cl)c1	active: 17.8 µM	–
CCOc1ccc(-n2c(C)cc(C(=O)NS(=O)(=O)c3ccc(C)cc3)c2C)cc1	inconclusive: 4.47 µM [activator, partial curve]	–
Cc1cccc2nc(=S)n(C(=O)c3ccco3)n12	inconclusive: 3.98 µM [inhibitor, full curve, poor fit]	–
COc1ccc(OC)c(NC(=O)CSc2nnc(C3CCCCC3)o2)c1	inconclusive: 11.2 µM [activator, partial curve, poor fit]	–
COc1ccc(NC(=O)C2=CC(c3ccc(OC)cc3)=NS(=O)(=O)N2C)cc1	inconclusive: 35.5 µM [activator, single point]	–
O=C(N/N=C\c1cc(Br)c(Br)o1)C1COc2ccccc2O1 (centres undefined)	inconclusive: 15.8 µM [inhibitor, single point]	–
CCCc1nc(NCCCOCC)c2nnn(Cc3ccccc3)c2n1	inconclusive: 0.891 µM [inhibitor, single point]	–
CC(C)CCn1c(Oc2ccc(Cl)cc2)nc2c1c(=O)n(C)c(=O)n2C	–	inactive: 10.1%
Cc1nc2scc(-c3ccc(C(C)(C)C)cc3)c2c(=O)n1N	inconclusive: 2.82 µM [inhibitor, single point]	–
CCOc1ccc2nc3c(cc2c1)CN(CCCO)C(=NCCOC)S3	–	inactive: 43.5%

SMILES	Potency	activity change, negative = inhibition
CC(=O)Nc1ccc(NC(=O)CSc2nnc(NC(=O)c3ccc(Br)o3)s2)cc1	active: 3.16 µM	–
Cc1ccc(C23CC4CC(CC(NC(=O)NCCN(C)C)(C4)C2)C3)cc1	inconclusive: 35.5 µM [inhibitor, single point]	–
CN1C(=O)C(CC(=O)Nc2ccc(Cl)cc2)N(Cc2ccco2)C1=S (centres undefined)	inconclusive: 35.5 µM [inhibitor, single point]	–
CCOC(=O)N1CCN(C(=O)CN(c2ccc(C)cc2)S(=O)(=O)c2c(C)noc2C)CC1	–	inactive: 5.73%
CC(C)(C)c1ccc(C(=O)NNC(=O)c2cccc(Br)c2)cc1	inconclusive: 11.2 µM [inhibitor, single point]	–
CC(C)c1ccc(C(=O)Nc2cccnc2)cc1	inconclusive: 1.26 µM [activator, single point]	–
S=c1[nH]nc(C2CCCCC2)n1/N=C/c1cccc(Br)c1	active: 2 µM	–
COc1ccc(C(=O)Nc2nc(C)c(C(=O)N(C)C)s2)cc1OC	inconclusive: 15.8 µM [activator, single point]	–
O=C(Nc1csc(Cc2c(Cl)cccc2Cl)n1)NN1CCOCC1	inconclusive: 708 µM [inhibitor, partial curve, poor fit]	–
CCC(C)NC(=O)c1ccc2c(c1)N(Cc1ccccc1)C(=O)CS2 (centres undefined)	–	inactive: -1.57%
CN(C)c1ccc(C(C[N+](=O)[O-])c2c(N)n(C)c(=O)n(C)c2=O)c(F)c1C#N (centres undefined)	active: 6.31 µM	–
C=CCOc1c(Br)cc(CNn2cn[nH]c2=S)cc1OC	active: 10 µM	–
Cc1ccc(Nc2nc(CSc3nnc(-c4cccnc4)n3-c3ccccc3F)cs2)cc1	active: 3.98 µM	–
COc1cc(OC)c(/C=N/NC(N)=S)cc1Br	active: 8.91 µM	–
C=CCN1C(=O)[C@@H]2Cc3c([nH]c4ccccc34)C(c3ccc(O)cc3)N2C1=S (some centres undefined)	–	inactive: 13.9%
Cc1cc(NCCN(C)C)n2nc(-c3cccs3)cc2n1	inconclusive: 14.1 µM [inhibitor, partial curve]	–
CN1CCN(S(=O)(=O)Cc2ccc(Cl)cc2)CC1	–	inactive: -4%
C=CCOc1ccc(/C=C/C(=O)OCC(=O)N(C)C2CCS(=O)(=O)C2)cc1 (centres undefined)	–	inactive: -8.5%
Fc1ccccc1C1c2cccn2CCN1C(=S)Nc1cccc(Br)c1 (centres undefined)	active: 12.6 µM	–
COc1cccc(CNCc2ccc(OC)c3ccccc23)c1OC	–	inactive: -7.93%
Brc1ccc(C2C3=C(Nc4ncnn42)c2ccccc2OC3c2ccncc2)cc1 (centres undefined)	inconclusive: 25.1 µM [inhibitor, single point]	–
N#Cc1nc(-c2ccco2)oc1NCCc1ccccc1	inconclusive: 15.8 µM [activator, single point]	–
COc1cc(OC)c(S(=O)(=O)Nc2ccc(C)cn2)cc1NC(C)=O	–	inactive: 7.24%
O=C(NCCC1=CCCCC1)NC12CC3CC(CC(C3)C1)C2	–	inactive: -8.43%

— PubChem BioAssay AID2551 (National Center for Advancing Translational Sciences (NCATS), 2010)
